The values that follow come from the supplement of paper PMC6119338.

SMILES strings stand for the structures. The list shows a part of the results. Repeats are few or missing, and single values can be far off.

The assay deals with Plasmodium berghei sporozoites. The assay is described as follows: residual sporozoite gliding motility relative to DMSO control; higher = less inhibition of motility. The conditions noted are these: 10 µM; incubation time 30 min.
As for `COc1cccc(C=Cc2nc(=O)c3ccccc3o2)c1OC`, the “residual sporozoite gliding motility” value was greater than 50%.
In the case of `COCCN(C(=O)Cc1cccs1)C(C(=O)NCc1ccc(OC)cc1)c1ccc(C(C)C)cc1` (stereo not drawn) it was greater than 50%; in that of `COCCn1c(C)nc2ccccc2c1=O`, greater than 50%.
For the compound `COCCNC(=O)c1ccc(OC2CCN(Cc3ccc(F)c(F)c3)CC2)c(Cl)c1`, the “residual sporozoite gliding motility” value is greater than 50%.
In the case of `COc1ccccc1CNC(=O)C1c2ccccc2C(=O)N(CC(C)C)C1c1cccs1` (stereo not drawn) it was greater than 50%; in that of `N=c1c2ccccc2nnn1-c1cccc(C(F)(F)F)c1`, greater than 50%.
Take `CCOC(=O)C1=CN(C)C=C(C(=O)OCC)C1c1cc(Br)c(OCC)c(OC)c1`: the “residual sporozoite gliding motility” value is greater than 50%.
As for `CCCCCCc1cc2cc(-c3nc4ccccc4[nH]3)c(=Nc3ccccc3C)oc2cc1O`, the “residual sporozoite gliding motility” value is greater than 50%.
For the compound `Cc1cc(C)cc(Nc2cc(C)nc3nc(C(F)(F)F)nn23)c1`, the “residual sporozoite gliding motility” value was greater than 50%.
In the case of `CCOc1ccc(N2C(N)=NC(N)=NC2(C)C)cc1` it was greater than 50%; in that of `CC(=O)NCCc1nc2ccccc2n1Cc1ccc(C(C)C)cc1`, greater than 50%.
Consider `CCOc1cccc(C(=O)Nc2ccc(-c3nc4ccccc4[nH]3)cc2)c1`, for which the “residual sporozoite gliding motility” value is greater than 50%.
Then `Cc1ccc(C)c(-c2csc(Nc3ccc(C)c(C)c3)n2)c1`, with greater than 50%.
`CCOC(=O)C1=C(c2ccccc2)N=c2sc(=Cc3cc(C)n(-c4ccc(F)cc4)c3C)c(=O)n2C1c1cccc(OC)c1OC` (stereo not drawn): the “residual sporozoite gliding motility” value was greater than 50%.
Regarding `Oc1ccc(Cl)cc1CNc1nc2ccccc2[nH]1`, the “residual sporozoite gliding motility” value was greater than 50%.
In the case of `O=C(Nc1ccccc1O)c1ccc(-c2ccc(Cl)cc2Cl)o1` it was greater than 50%; in that of `COc1ccc2nc(C)cc(Nc3cccc(O)c3)c2c1`, greater than 50%; in that of `CCN(CC)CCCNc1ccnc2cc3ccccc3cc12`, greater than 50%.
